Results are given in words; binding and its absence hold for the method and conditions named. In cells and extracts the contact can be indirect. Here binding means that the protein was enriched with, or labelled near, the bait; the list need not be complete. For part of these data: Sequences can lack the tags named with a protein.
T1: Utp15-FLAG (S. cerevisiae) (UniProt Q04305)
T1 sequence: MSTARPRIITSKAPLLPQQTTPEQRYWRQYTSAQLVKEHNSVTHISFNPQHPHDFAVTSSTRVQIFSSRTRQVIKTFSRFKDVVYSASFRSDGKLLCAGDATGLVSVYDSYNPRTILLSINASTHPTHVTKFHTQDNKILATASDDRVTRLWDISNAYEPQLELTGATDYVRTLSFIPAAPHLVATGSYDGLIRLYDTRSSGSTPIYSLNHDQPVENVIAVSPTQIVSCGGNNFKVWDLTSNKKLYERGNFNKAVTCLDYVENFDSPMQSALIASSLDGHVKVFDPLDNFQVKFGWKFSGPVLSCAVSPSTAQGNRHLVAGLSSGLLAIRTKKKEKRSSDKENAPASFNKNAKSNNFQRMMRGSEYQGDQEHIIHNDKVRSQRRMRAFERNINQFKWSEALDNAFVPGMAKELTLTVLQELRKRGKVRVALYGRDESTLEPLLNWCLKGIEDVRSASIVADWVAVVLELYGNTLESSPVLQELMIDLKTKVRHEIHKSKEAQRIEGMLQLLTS

T2: Nan1-HA (S. cerevisiae) (UniProt Q02931)
T2 sequence: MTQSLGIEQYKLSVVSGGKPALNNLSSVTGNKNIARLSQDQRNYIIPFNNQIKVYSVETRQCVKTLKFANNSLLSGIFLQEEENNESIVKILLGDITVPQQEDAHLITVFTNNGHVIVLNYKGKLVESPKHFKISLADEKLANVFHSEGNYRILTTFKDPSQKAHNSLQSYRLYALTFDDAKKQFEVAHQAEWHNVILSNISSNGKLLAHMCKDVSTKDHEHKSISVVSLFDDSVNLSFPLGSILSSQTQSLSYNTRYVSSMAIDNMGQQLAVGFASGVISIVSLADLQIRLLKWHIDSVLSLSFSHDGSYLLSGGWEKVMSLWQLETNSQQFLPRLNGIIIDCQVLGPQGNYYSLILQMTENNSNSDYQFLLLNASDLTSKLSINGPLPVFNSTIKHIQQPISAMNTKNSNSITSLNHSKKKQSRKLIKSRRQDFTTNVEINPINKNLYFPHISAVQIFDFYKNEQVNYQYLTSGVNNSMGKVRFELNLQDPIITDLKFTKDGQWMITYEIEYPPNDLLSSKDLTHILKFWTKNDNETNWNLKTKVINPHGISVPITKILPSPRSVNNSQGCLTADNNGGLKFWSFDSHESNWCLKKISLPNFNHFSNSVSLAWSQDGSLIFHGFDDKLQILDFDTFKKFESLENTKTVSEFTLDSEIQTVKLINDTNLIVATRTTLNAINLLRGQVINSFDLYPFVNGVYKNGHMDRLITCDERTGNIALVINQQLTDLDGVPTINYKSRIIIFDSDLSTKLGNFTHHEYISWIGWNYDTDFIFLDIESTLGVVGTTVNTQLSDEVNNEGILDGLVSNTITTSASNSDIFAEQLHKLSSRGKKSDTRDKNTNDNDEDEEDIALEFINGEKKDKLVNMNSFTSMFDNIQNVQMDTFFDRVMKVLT

T3: Utp4-TAP (S. cerevisiae) (UniProt Q06679)
T3 sequence: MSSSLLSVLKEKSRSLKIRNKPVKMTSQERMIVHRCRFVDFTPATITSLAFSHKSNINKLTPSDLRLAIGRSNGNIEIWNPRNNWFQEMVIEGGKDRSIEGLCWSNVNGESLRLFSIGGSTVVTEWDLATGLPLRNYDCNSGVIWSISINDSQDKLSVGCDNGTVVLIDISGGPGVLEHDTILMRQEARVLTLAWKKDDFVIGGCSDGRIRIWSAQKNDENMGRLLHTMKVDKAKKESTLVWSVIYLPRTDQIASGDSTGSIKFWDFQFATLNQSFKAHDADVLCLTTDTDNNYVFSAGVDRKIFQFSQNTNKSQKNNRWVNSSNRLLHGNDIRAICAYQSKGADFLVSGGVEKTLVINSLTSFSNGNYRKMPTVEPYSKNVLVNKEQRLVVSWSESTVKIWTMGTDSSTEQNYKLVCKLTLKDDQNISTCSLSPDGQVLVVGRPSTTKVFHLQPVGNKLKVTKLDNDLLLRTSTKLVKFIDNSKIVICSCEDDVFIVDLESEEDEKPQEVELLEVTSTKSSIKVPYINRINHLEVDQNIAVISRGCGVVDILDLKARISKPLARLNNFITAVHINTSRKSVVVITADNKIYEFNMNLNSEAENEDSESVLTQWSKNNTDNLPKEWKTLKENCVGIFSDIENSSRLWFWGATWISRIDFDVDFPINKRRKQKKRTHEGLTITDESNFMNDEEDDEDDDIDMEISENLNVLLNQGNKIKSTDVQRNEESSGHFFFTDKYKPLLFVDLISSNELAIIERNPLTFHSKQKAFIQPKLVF

T4: Utp8-FLAG (S. cerevisiae) (UniProt P53276)
T4 sequence: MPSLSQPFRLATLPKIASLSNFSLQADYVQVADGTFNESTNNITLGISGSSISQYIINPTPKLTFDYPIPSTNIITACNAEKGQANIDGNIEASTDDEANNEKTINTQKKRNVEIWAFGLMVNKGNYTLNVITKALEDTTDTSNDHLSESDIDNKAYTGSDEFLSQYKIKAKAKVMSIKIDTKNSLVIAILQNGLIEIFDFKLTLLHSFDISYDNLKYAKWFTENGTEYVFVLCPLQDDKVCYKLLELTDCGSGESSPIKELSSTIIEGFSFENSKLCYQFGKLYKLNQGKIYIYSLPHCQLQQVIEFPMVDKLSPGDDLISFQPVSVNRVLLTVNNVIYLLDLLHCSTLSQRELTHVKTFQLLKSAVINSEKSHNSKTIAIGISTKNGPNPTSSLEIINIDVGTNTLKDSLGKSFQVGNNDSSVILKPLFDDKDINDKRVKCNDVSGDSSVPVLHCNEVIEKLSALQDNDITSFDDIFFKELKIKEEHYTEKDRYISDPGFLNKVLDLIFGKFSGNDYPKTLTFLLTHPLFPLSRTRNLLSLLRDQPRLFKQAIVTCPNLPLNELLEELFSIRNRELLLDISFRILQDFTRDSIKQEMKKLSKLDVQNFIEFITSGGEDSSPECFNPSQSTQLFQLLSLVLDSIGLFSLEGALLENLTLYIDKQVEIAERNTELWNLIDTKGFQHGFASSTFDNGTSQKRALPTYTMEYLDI


How the values were obtained:
[1] = target: T1, Utp15-FLAG (S. cerevisiae); experiment: affinity purification with mass spectrometry; Utp4, Utp5, Utp8, Utp9, Utp10, Utp15-FLAG and Nan1-HA co-expressed in SF21 cells (bacmid K2000); one-step, bait Utp15-FLAG on anti-FLAG affinity matrix, lysate cleared by low-speed centrifugation, buffer A100+ (20 mM Tris-HCl pH 8, 100 mM KCl, 5 mM Mg(OAc)2, 0.5% Triton X-100, 0.1% Tween-20), 4°C, FLAG peptide elution; SDS-PAGE, Coomassie, MS of bands
Nan1-HA (S. cerevisiae) = target: T2, Nan1-HA (S. cerevisiae); experiment: affinity purification with mass spectrometry; bacmid K2000 (all seven tUTP candidates); two-step: anti-FLAG eluate (Utp15-FLAG) purified again on anti-HA affinity matrix with Nan1-HA as bait, HA peptide elution; SDS-PAGE, Coomassie, MS of bands
Utp4-TAP (S. cerevisiae) [2] = target: T3, Utp4-TAP (S. cerevisiae); experiment: affinity purification with mass spectrometry; Utp4-TAP, Utp5, Utp8, Utp9 and Utp15-FLAG co-expressed in SF21 cells (bacmid K2123), without Nan1 and Utp10; one-step, bait Utp4-TAP on IgG Sepharose, TEV elution; SDS-PAGE, Coomassie, MS of bands
[3] = target: T1, Utp15-FLAG (S. cerevisiae); experiment: affinity purification with mass spectrometry; bacmid K2123 (five pentamer proteins); two-step: IgG Sepharose/TEV eluate (Utp4-TAP) purified again on anti-FLAG affinity matrix with Utp15-FLAG as bait, FLAG peptide elution; SDS-PAGE, Coomassie, MS of bands
[4] = target: T4, Utp8-FLAG (S. cerevisiae); experiment: affinity purification with mass spectrometry; only Utp8-FLAG and Utp9 co-expressed in SF21 cells (bacmid K2204); one-step anti-FLAG purification, FLAG peptide elution; SDS-PAGE and MS
[5] = target: T1, Utp15-FLAG (S. cerevisiae); experiment: affinity purification with mass spectrometry; only Utp5 and Utp15-FLAG co-expressed in SF21 cells (bacmid K2124); one-step anti-FLAG purification, FLAG peptide elution; SDS-PAGE and MS
Utp4-TAP (S. cerevisiae) [6] = target: T3, Utp4-TAP (S. cerevisiae); experiment: affinity purification with mass spectrometry; only Utp4-TAP and Utp5 co-expressed in SF21 cells (bacmid K1721); one-step, bait Utp4-TAP on IgG-coupled beads, TEV elution; SDS-PAGE and MS
Utp4-TAP (S. cerevisiae) [7] = target: T3, Utp4-TAP (S. cerevisiae); experiment: affinity purification with mass spectrometry; only Utp4-TAP, Utp5 and Utp15-FLAG co-expressed in SF21 cells (bacmid K2209); one-step, bait Utp4-TAP on IgG-coupled beads, TEV elution; SDS-PAGE and MS

Row | binding [1] | binding (Nan1-HA (S. cerevisiae)) | binding (Utp4-TAP (S. cerevisiae) [2]) | binding [3] | binding [4] | binding [5] | binding (Utp4-TAP (S. cerevisiae) [6]) | binding (Utp4-TAP (S. cerevisiae) [7]) | Binder
1 | binds | binds weakly | binds | binds | binds |  |  |  | Utp9 (protein, UniProt P38882 1-575) MGSSLDLVASFSHDSTRFAFQASVAQKNNVDIYPLNETKDYVVNSSLVSHIDYETNDMKVSDVIFFGWCSDLIDTQSSNIKRKLDEDEGTGESSEQRCENFFVNGFPDGRIVVYSSNGKDIVNIIKNKKEILGADTDESDIWILDSDKVVKKLQYNNSKPLKTFTLVDGKDDEIVHFQILHQNGTLLVCIITKQMVYIVDPSKRRPSTKYSFEISDAVACEFSSDGKYLLIANNEELIAYDLKEDSKLIQSWPVQVKTLKTLDDLIMALTTDGKINNYKIGEADKVCSIVVNEDLEIIDFTPINSKQQVLISWLNVNEPNFESISLKEIETQGYITINKNEKNNADEADQKKLEEKEEEAQPEVQHEKKETETKINKKVSKSDQVEIANILSSHLEANSTEILDDLMSGSWTEPEIKKFILTKINTVDHLSKIFLTISKSITQNPWNEENLLPLWLKWLLTLKSGELNSIKDKHTKKNCKHLKSALRSSEEILPVLLGIQGRLEMLRRQAKLREDLAQLSMQEGEDDEIEVIEHSNVISNPLQDQASPVEKLEPDSIVYANGESDEFVDASEYKD
2 | binds | binds weakly | binds | binds |  | binds | binds | binds | Utp5 (protein, UniProt Q04177 1-643) MDSPVLQSAYDPSGQYLCYVTVALDKQRVGVQPTQRATSSGVDTVWNENFLYLEDSKLKVTCLKWVNLASSDTVAIILGMNNGEIWLYSVLANEVTYKFTTGNSYEIKDIDLMGNQLWCIDSSDAFYQFDLLQFKLLQHFRINNCVQLNKLTIVPAGDSVAQLLVASHSISLIDIEEKKVVMTFPGHVSPVSTLQVITNEFFISGAEGDRFLNVYDIHSGMTKCVLVAESDIKELSHSGQADSIAVTTEDGSLEIFVDPLVSSSTKKRGNKSKKSSKKIQIVSKDGRKVPIYNAFINKDLLNVSWLQNATMPYFKNLQWREIPNEYTVEISLNWNNKNKSADRDLHGKDLASATNYVEGNARVTSGDNFKHVDDAIKSWERELTSLEQEQAKPPQANELLTETFGDKLESSTVARISGKKTNLKGSNLKTATTTGTVTVILSQALQSNDHSLLETVLNNRDERVIRDTIFRLKPALAVILLERLAERIARQTHRQGPLNVWVKWCLIIHGGYLVSIPNLMSTLSSLHSTLKRRSDLLPRLLALDARLDCTINKFKTLNYEAGDIHSSEPVVEEDEDDVEYNEELDDAGLIEDGEESYGSEEEEEGDSDNEEEQKHTSSKQDGRLETEQSDGEEEAGYSDVEME
